Experimental data: article PMC8933003
Results are given in words; binding and its absence hold for the method and conditions named. Binding seen in cells or lysates may run through a third protein. Some binding calls cover weakened binding; strength is not graded here.

The chains behind the UniProt entries cited, without tags or fusion partners. Residues count along the entry.
UniProt O08852, residues 24-4293: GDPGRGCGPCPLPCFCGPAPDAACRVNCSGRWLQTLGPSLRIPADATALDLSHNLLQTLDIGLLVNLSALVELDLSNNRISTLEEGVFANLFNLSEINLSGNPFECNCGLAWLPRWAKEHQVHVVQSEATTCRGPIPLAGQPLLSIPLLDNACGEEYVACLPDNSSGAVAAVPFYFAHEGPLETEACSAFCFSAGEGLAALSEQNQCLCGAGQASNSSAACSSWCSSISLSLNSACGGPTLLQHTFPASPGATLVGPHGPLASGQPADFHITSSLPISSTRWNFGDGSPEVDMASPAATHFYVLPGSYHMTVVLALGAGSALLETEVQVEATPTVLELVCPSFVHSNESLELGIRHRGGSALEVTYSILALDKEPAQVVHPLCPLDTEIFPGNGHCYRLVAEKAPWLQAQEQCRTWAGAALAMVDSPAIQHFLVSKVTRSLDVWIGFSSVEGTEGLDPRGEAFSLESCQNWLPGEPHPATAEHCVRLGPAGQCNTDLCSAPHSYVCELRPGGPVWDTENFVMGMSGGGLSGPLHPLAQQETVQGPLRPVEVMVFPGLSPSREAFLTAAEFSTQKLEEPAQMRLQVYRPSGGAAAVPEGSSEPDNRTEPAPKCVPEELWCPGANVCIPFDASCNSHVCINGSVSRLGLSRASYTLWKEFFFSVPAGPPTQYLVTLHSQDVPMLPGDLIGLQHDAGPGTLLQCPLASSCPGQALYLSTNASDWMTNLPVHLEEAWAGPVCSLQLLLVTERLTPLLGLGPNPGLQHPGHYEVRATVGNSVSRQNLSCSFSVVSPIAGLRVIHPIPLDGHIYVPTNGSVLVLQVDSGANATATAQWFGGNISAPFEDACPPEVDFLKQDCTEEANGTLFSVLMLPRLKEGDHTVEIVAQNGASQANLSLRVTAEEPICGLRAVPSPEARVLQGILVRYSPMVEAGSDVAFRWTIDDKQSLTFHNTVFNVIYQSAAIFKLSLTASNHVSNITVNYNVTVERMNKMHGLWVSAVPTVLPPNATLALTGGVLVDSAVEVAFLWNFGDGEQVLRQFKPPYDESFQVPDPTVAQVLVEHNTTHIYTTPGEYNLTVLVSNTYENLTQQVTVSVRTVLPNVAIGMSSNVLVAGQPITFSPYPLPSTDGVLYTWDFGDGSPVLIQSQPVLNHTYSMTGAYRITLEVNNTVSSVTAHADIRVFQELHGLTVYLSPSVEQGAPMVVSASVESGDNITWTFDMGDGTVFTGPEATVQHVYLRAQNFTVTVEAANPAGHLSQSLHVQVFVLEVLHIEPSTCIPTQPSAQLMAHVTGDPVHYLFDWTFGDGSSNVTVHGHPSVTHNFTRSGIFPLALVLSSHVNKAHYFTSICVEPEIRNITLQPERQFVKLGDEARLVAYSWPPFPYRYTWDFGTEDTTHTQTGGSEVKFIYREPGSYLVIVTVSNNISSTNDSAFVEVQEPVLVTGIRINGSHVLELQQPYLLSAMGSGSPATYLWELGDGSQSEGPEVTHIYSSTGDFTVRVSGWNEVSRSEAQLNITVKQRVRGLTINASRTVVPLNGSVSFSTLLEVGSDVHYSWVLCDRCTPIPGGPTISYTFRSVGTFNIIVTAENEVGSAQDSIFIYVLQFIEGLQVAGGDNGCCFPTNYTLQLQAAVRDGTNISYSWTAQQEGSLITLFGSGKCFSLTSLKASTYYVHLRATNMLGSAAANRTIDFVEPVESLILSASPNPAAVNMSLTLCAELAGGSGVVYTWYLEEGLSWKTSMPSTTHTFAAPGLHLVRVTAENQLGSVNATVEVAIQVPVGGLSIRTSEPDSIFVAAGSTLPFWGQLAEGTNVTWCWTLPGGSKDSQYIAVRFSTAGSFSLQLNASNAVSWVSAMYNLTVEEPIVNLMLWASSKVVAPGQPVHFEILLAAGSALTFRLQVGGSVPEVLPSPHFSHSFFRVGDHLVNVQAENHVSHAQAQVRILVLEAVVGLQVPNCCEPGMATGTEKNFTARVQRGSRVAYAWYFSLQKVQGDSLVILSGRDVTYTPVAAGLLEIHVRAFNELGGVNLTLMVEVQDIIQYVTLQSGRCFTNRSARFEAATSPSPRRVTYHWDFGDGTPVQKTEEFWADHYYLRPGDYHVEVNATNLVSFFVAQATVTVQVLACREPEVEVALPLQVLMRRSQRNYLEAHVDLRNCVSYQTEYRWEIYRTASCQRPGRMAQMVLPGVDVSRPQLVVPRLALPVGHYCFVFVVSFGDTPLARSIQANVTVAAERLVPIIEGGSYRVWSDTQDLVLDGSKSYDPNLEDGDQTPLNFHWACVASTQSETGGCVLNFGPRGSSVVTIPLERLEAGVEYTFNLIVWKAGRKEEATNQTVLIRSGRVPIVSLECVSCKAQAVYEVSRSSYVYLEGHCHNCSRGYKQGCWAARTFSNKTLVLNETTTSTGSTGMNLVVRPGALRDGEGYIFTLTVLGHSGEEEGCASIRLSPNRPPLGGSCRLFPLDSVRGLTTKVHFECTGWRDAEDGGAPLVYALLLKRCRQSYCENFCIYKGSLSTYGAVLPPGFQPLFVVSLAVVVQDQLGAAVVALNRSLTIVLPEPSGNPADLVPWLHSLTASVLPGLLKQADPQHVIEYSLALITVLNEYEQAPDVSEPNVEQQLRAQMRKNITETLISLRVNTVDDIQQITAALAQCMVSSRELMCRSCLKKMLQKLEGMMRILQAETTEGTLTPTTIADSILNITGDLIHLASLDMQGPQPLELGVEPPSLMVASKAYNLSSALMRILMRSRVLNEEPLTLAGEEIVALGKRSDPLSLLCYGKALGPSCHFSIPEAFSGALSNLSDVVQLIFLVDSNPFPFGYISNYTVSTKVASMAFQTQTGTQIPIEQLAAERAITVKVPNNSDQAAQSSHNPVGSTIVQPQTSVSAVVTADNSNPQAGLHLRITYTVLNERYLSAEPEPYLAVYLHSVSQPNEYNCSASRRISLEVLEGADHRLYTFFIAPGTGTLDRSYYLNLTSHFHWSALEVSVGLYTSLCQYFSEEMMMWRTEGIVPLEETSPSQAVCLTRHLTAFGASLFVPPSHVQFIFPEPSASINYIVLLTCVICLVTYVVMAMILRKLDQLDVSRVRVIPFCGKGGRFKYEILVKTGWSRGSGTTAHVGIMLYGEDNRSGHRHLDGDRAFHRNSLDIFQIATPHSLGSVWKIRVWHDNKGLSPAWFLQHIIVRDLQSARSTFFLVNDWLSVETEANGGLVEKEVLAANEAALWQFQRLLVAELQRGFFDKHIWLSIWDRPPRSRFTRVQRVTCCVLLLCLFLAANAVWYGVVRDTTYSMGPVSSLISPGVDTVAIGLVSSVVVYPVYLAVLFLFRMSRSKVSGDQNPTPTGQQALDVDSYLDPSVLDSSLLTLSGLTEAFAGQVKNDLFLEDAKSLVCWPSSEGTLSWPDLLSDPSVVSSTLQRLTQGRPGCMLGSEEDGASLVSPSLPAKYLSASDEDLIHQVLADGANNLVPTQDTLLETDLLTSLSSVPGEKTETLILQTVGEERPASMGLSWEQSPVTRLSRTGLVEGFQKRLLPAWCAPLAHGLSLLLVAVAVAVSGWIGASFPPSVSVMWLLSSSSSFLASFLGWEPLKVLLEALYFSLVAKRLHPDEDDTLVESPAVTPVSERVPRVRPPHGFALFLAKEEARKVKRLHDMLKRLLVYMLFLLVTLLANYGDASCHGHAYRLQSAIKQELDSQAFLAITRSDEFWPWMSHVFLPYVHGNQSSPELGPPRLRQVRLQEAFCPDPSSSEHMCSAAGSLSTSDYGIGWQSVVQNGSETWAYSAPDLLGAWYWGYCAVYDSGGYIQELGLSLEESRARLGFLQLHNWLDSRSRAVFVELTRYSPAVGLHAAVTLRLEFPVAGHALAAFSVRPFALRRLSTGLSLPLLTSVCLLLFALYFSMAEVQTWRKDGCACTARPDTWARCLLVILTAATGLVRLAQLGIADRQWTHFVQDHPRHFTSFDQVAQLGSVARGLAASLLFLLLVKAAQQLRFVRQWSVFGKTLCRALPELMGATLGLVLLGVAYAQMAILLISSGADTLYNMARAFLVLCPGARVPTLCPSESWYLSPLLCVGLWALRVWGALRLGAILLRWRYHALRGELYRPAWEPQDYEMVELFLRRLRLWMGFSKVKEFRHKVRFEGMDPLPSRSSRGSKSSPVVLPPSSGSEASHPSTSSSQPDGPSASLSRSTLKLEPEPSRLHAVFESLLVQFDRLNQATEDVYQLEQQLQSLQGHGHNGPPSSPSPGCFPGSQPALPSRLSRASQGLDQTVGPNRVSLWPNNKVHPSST

Molecular target: T1, Polycystin-2 (mouse (endogenous in mesenteric arteries)) (UniProt O35245)
T1 sequence: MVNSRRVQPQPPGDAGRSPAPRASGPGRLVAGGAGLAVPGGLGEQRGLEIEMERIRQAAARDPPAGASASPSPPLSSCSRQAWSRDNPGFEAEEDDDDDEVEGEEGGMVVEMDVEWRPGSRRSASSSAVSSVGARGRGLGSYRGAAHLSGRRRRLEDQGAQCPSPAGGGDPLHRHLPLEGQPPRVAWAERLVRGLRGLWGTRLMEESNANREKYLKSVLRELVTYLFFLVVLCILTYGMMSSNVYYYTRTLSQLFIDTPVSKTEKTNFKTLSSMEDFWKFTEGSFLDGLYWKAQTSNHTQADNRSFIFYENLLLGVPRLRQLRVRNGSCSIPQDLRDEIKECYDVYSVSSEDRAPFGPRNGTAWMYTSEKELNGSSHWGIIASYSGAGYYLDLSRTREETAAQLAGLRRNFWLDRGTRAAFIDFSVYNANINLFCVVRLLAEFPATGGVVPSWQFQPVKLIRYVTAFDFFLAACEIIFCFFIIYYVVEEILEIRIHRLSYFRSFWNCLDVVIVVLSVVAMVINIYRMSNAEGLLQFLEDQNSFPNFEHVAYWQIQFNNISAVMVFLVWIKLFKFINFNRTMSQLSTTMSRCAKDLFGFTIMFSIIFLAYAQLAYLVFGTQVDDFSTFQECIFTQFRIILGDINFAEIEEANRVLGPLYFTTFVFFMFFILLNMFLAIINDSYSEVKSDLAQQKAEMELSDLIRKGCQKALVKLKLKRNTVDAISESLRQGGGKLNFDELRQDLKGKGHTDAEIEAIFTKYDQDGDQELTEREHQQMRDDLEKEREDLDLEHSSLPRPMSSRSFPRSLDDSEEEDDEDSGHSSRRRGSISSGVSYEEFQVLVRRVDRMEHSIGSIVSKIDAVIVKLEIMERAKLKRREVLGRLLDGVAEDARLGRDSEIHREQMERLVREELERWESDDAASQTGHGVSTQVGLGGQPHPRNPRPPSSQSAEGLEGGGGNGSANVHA
Assay: co-IP; mouse mesenteric artery lysate (second- to fifth-order vessels); PC-2 antibody (1:20) covalently bound to protein A/G magnetic beads (Pierce crosslink magnetic IP/co-IP kit), overnight at 4°C; immunoprecipitates analyzed by Western blotting

Substance: Polycystin-1 (from UniProt O08852 24-4293)
- binding: binds
